Assay results as given in the supplement of paper PMC4604168 (melanoma cell lines).
The other results are listed elsewhere or left out. Repeats are few or missing, and single values can be far off.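 The apoptosis fraction was the count of cleaved-PARP antibody-stained nuclei relative to all DNA-stained nuclei, imaged in 1,536-well plates. Screening doses were set so most cells survived, and baseline and induced cleaved-PARP levels vary greatly across cell lines.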

System: UACC62
Assay: cleaved PARP positive nuclei fraction relative to DMSO control; melanoma cells; higher = more apoptosis
Conditions: library dose: low library concentration; 72 h

Structure (SMILES)	cleaved PARP positive nuclei fraction [%]
O=C(Nc1cccc(Cl)c1)Nc1ncc(CCNc2ncnc3ccsc23)s1 + COc1ccc(COc2ccc(Cc3cnc(N)nc3N)cc2OC)cc1 [GW2580] (first compound 0.0008 µM, partner dose 1 µM)	41.6
Cc1nc(Nc2ncc(C(=O)Nc3c(C)cccc3Cl)s2)cc(N2CCN(CCO)CC2)n1 [dasatanib] + O=C1NC(=O)/C(=C/c2ccc(-c3ccc(F)cc3O)o2)S1 [AS252424] (first compound 0.004 µM, partner dose 1 µM)	78.9
C[C@]1(c2nc3c(C(N)=O)cccc3[nH]2)CCCN1 [Veliparib] + Cc1cc([N+](=O)[O-])ccc1NS(=O)(=O)c1cc(Cl)ccc1Cl [FH535] (first compound 1.4 µM, partner dose 1 µM)	283
C[C@@H]1CCN(C(=O)CC#N)C[C@@H]1N(C)c1ncnc2[nH]ccc12 + COc1cc2ncnc(Nc3ccc(Oc4ccccc4)cc3)c2cc1OC [SrcI1] (first compound 1 µM, partner dose 2 µM)	37.7
CC1(C)NC(=O)N(c2ccc([N+](=O)[O-])c(C(F)(F)F)c2)C1=O [nilutamide] + c1cc(-c2cnn3cc(-c4ccc(OCCN5CCCCC5)cc4)cnc23)ccn1 [Dorsomorphin] (first compound 1 µM, partner dose 0.4 µM)	73.9
C[C@@H]1CCN(C(=O)CC#N)C[C@@H]1N(C)c1ncnc2[nH]ccc12 + c1cc(-c2cnn3cc(-c4ccc(OCCN5CCCCC5)cc4)cnc23)ccn1 [Dorsomorphin] (first compound 1 µM, partner dose 0.4 µM)	61
NC(=O)Nc1cc(-c2cccc(F)c2)sc1C(=O)N[C@H]1CCCNC1 + O=S(=O)(c1ccccc1)N(CC(F)(F)F)c1ccc(C(O)(C(F)(F)F)C(F)(F)F)cc1 [T0901317] (first compound 0.02 µM, partner dose 1.4 µM)	55.3
O=C(Nc1cccc(Cl)c1)Nc1ncc(CCNc2ncnc3ccsc23)s1 + COc1cc(N2CCC(N3CCN(C)CC3)CC2)ccc1Nc1ncc(Cl)c(Nc2ccccc2S(=O)(=O)C(C)C)n1 [NVP-TAE684] (first compound 0.0008 µM, partner dose 0.08 µM)	78
C[C@]1(c2nc3c(C(N)=O)cccc3[nH]2)CCCN1 [Veliparib] + O=S(=O)(c1ccccc1)N(CC(F)(F)F)c1ccc(C(O)(C(F)(F)F)C(F)(F)F)cc1 [T0901317] (first compound 1.4 µM, partner dose 1.4 µM)	90.7
Cc1nc(Nc2ncc(C(=O)Nc3c(C)cccc3Cl)s2)cc(N2CCN(CCO)CC2)n1 [dasatanib] + CCc1ccc(CCOc2ccc(CC3SC(=O)NC3=O)cc2)nc1 [pioglitazone] (first compound 0.004 µM, partner dose 2 µM)	48.2
CC1(C)NC(=O)N(c2ccc([N+](=O)[O-])c(C(F)(F)F)c2)C1=O [nilutamide] + O=c1cc(-c2cccc3c2Sc2ccccc2S3)oc(N2CCOCC2)c1 [KU55933] (first compound 1 µM, partner dose 1 µM)	139
COc1cc(Nc2ncc(F)c(Nc3ccc4c(n3)NC(=O)C(C)(C)O4)n2)cc(OC)c1OC [Tamatinib] + Oc1nc(-c2ccc(C(F)(F)F)cc2)nc2c1CSCC2 [XAV939] (first compound 0.4 µM, partner dose 2 µM)	172
O=C(CCCCCCC(=O)Nc1ccccc1)NO [vorinostat] + O=C(O)C(=O)Nc1sc2c(c1C(=O)O)CCNC2 [TCS401] (first compound 0.08 µM, partner dose 1.66667 µM)	257

Taken from above.
Value of Cc1nc(Nc2ncc(C(=O)Nc3c(C)cccc3Cl)s2)cc(N2CCN(CCO)CC2)n1 [dasatanib] + CCc1ccc(CCOc2ccc(CC3SC(=O)NC3=O)cc2)nc1 [pioglitazone] (first compound 0.004 µM, partner dose 2 µM) under cleaved PARP positive nuclei fraction [%]: 48.2
Value of C[C@@H]1CCN(C(=O)CC#N)C[C@@H]1N(C)c1ncnc2[nH]ccc12 + c1cc(-c2cnn3cc(-c4ccc(OCCN5CCCCC5)cc4)cnc23)ccn1 [Dorsomorphin] (first compound 1 µM, partner dose 0.4 µM) under cleaved PARP positive nuclei fraction [%]: 61
